Experimental data from paper PMC5691636.
These are yes or no findings as the source states them, for the method shown. Binding seen in cells or lysates may run through a third protein.

Protein sequences, listed by entry. Tags and fused reporters are not part of them. Lines headed by an entry give the natural chain unless they say otherwise; changes in a name come on top. Chains listed by the source or under a name are the forms on record and can include a tag or linker. Residues count along the entry.
UniProt O75928: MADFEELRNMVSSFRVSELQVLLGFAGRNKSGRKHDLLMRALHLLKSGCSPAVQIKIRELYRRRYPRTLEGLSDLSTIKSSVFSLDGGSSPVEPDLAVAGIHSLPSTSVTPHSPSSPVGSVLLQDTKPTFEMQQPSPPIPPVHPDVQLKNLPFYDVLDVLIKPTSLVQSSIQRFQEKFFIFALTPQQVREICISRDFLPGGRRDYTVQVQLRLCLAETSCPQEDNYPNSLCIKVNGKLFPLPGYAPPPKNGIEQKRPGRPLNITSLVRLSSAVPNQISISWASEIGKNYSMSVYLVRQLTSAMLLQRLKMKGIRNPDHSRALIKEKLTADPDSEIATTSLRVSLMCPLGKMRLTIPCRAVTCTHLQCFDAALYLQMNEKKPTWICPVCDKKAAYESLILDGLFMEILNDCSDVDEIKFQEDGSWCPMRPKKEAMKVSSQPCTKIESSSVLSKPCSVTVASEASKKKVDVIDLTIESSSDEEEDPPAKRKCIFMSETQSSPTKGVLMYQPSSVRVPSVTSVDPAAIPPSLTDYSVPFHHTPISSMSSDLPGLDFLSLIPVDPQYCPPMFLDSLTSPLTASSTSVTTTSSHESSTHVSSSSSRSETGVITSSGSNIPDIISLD
HCV NS3 protein of genotype 2a (JFH1), FLAG-tagged (Hepatitis C virus genotype 2a (JFH1)) (Q99IB8, residues 1031-1661): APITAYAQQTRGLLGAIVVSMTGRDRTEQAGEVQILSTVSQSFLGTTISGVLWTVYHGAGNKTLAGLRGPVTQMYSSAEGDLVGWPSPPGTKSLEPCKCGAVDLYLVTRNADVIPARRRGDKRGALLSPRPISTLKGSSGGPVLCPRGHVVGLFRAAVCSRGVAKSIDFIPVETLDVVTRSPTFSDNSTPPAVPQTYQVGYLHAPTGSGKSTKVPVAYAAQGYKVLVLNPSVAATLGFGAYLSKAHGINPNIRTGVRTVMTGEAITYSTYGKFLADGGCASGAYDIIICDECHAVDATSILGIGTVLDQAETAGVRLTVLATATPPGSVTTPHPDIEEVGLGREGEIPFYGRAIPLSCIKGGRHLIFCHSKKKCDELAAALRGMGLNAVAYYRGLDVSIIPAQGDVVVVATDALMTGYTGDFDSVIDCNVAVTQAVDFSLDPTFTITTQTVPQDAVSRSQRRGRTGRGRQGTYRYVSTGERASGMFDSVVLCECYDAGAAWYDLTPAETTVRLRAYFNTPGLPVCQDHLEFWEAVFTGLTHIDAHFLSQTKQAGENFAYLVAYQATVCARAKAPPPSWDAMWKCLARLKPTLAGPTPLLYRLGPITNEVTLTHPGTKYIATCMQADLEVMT
HCV NS5A protein of genotype 2a (JFH1), FLAG-tagged (Hepatitis C virus genotype 2a (JFH1)) (Q99IB8, residues 1977-2442): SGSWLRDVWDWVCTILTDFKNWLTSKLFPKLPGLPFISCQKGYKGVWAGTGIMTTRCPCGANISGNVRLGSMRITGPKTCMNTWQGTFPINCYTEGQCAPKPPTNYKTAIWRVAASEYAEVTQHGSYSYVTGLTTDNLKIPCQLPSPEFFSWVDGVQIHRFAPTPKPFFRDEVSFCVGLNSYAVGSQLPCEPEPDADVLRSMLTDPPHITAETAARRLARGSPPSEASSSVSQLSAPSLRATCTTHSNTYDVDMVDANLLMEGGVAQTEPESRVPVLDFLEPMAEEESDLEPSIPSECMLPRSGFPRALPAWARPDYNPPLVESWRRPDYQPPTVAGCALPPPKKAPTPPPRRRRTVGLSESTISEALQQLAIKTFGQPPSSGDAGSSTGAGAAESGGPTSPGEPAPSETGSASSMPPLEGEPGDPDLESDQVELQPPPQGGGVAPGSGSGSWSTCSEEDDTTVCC

What was measured:
Experiment in all cases: co-IP
[1] = biological target: protein inhibitor of activated STAT2 (PIAS2), HA-tagged (human) (UniProt O75928)
[2] = biological target: HCV NS5A protein of genotype 2a (JFH1), FLAG-tagged (Hepatitis C virus genotype 2a (JFH1)) (UniProt Q99IB8)
[3] = biological target: HCV NS3 protein of genotype 2a (JFH1), FLAG-tagged (Hepatitis C virus genotype 2a (JFH1)) (UniProt Q99IB8)

HCV NS5A protein of genotype 2a (JFH1), FLAG-tagged (from UniProt Q99IB8 1977-2442)
binding [1]: no binding

HCV NS3 protein of genotype 2a (JFH1), FLAG-tagged (from UniProt Q99IB8 1031-1661)
binding [1]: no binding

protein inhibitor of activated STAT2 (PIAS2), HA-tagged (from UniProt O75928-1 1-621)
binding [2]: no binding
binding [3]: no binding
